Laboratory results published in the supplement of paper PMC11732987, “Enantioselective OTUD7B fragment discovery through chemoproteomics screening and high-throughput optimisation” (Communications Chemistry, 2025).
This is one part of the list. The data scatter; read single values as rough.

Chains of the proteins cited; added tags and fusions are not shown. Lines headed by an entry give the natural chain unless they say otherwise; changes in a name come on top. Residues count along the entry.
UniProt Q9H7P9: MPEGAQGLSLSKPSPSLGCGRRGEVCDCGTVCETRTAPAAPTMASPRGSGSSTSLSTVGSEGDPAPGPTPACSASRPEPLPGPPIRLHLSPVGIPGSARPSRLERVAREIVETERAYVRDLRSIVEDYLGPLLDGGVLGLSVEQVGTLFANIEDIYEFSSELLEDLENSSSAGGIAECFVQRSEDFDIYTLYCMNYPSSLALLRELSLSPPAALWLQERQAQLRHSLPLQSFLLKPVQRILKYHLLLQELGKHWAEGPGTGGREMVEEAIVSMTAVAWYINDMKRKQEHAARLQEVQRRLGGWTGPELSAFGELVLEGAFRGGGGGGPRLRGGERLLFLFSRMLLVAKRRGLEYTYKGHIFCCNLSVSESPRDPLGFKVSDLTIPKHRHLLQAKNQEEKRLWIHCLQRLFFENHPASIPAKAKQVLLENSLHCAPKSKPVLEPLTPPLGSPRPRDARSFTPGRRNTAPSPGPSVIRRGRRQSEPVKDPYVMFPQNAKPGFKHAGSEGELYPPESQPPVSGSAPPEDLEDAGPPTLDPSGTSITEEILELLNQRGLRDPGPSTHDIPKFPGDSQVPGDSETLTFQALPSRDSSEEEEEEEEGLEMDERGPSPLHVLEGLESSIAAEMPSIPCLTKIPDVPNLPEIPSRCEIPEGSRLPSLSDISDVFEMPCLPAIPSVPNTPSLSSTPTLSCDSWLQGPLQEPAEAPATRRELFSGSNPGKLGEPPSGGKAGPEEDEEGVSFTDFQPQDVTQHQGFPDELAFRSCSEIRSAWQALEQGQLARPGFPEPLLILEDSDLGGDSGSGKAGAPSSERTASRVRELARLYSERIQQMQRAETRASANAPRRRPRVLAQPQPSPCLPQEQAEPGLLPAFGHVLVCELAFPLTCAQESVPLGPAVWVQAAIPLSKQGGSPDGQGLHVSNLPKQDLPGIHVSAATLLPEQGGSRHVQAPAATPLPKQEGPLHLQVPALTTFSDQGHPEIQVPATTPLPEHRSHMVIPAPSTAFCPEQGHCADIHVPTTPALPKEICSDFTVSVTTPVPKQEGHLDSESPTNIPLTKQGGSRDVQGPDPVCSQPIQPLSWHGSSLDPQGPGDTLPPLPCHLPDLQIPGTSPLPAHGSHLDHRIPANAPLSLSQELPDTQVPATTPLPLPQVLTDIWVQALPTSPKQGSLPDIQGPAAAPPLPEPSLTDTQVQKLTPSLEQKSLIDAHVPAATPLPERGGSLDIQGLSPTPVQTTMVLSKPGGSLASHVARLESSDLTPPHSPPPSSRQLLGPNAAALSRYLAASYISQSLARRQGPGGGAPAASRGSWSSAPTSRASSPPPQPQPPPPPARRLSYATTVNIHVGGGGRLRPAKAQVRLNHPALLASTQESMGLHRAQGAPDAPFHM
UniProt Q8IYS1: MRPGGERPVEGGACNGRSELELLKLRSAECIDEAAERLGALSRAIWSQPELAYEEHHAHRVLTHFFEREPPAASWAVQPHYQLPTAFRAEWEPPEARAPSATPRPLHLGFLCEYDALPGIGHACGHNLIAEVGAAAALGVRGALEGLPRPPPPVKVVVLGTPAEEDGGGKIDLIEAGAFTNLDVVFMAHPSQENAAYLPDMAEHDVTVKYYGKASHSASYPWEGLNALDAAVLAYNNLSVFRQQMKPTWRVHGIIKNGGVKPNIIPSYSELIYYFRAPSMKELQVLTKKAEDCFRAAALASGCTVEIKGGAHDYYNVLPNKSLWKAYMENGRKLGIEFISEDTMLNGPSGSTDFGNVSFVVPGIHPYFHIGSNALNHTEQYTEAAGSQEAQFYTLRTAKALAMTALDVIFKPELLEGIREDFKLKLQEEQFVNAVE
UniProt P42338: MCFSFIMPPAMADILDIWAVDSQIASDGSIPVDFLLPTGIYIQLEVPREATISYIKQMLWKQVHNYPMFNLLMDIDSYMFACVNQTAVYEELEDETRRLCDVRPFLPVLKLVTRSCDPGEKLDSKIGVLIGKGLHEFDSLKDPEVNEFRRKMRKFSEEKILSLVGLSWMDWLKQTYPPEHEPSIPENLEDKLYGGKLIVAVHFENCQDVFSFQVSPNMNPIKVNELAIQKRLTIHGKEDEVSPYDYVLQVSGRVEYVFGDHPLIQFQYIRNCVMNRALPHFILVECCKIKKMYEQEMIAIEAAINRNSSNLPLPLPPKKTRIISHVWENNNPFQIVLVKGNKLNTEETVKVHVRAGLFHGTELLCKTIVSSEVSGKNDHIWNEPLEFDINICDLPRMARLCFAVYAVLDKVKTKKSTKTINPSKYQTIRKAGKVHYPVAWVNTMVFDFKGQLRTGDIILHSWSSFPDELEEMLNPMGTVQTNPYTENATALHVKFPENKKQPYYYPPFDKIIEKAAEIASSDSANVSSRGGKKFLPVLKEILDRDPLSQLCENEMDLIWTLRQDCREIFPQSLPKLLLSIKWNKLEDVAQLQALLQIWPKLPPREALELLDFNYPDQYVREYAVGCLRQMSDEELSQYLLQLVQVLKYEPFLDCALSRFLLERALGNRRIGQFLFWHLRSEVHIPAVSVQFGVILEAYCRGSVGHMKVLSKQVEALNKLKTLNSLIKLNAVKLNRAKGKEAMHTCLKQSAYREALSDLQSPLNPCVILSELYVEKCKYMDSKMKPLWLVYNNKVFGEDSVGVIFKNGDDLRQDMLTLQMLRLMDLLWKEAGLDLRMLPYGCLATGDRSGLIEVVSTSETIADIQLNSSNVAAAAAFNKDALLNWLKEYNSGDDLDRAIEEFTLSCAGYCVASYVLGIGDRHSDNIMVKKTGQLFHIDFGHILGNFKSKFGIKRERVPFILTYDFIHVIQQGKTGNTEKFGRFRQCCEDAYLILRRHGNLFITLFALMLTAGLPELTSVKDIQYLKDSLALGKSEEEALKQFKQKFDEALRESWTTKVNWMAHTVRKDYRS
UniProt O95602, whole entry, looked up: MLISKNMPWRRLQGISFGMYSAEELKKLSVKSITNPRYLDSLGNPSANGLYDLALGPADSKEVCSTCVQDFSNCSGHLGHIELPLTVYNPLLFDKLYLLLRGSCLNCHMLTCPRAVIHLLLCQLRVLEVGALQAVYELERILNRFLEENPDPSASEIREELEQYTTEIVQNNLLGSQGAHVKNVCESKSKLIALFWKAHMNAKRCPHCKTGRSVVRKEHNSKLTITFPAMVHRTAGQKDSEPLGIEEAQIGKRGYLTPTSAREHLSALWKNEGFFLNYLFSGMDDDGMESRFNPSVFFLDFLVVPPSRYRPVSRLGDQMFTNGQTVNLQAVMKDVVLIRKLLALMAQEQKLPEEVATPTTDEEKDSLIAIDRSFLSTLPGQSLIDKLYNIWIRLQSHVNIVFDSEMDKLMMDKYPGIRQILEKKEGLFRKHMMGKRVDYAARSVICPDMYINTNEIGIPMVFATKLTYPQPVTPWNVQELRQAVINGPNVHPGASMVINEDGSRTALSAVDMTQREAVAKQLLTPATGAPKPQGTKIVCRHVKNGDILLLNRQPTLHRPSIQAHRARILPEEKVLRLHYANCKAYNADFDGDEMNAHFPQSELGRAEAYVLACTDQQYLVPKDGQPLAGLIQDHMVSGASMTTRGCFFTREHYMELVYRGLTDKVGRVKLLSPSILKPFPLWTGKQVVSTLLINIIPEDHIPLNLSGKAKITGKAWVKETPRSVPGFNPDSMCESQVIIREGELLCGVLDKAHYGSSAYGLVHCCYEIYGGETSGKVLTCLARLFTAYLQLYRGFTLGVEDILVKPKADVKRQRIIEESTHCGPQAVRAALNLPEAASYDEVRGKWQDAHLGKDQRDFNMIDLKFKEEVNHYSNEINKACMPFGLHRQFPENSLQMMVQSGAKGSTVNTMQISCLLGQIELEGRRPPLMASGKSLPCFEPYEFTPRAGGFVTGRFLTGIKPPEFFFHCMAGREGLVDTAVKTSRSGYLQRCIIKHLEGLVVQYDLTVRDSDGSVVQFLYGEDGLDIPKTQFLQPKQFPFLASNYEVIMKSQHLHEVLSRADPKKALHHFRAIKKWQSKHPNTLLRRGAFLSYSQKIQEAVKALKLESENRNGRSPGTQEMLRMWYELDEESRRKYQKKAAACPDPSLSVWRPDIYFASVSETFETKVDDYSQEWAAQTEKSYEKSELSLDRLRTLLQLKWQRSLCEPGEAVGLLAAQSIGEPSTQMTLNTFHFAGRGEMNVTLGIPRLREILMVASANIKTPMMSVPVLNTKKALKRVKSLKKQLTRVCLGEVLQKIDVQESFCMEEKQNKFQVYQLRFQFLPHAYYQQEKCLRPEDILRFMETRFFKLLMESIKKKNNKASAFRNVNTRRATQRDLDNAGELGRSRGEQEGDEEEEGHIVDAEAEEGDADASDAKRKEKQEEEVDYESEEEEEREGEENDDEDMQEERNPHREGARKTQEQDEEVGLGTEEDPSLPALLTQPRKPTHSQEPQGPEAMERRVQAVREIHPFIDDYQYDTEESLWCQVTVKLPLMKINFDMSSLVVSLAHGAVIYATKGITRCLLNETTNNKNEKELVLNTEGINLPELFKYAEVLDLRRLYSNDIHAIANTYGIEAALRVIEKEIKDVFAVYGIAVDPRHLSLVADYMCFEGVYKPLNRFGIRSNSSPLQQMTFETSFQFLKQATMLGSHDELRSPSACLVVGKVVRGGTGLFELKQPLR
UniProt Q93100: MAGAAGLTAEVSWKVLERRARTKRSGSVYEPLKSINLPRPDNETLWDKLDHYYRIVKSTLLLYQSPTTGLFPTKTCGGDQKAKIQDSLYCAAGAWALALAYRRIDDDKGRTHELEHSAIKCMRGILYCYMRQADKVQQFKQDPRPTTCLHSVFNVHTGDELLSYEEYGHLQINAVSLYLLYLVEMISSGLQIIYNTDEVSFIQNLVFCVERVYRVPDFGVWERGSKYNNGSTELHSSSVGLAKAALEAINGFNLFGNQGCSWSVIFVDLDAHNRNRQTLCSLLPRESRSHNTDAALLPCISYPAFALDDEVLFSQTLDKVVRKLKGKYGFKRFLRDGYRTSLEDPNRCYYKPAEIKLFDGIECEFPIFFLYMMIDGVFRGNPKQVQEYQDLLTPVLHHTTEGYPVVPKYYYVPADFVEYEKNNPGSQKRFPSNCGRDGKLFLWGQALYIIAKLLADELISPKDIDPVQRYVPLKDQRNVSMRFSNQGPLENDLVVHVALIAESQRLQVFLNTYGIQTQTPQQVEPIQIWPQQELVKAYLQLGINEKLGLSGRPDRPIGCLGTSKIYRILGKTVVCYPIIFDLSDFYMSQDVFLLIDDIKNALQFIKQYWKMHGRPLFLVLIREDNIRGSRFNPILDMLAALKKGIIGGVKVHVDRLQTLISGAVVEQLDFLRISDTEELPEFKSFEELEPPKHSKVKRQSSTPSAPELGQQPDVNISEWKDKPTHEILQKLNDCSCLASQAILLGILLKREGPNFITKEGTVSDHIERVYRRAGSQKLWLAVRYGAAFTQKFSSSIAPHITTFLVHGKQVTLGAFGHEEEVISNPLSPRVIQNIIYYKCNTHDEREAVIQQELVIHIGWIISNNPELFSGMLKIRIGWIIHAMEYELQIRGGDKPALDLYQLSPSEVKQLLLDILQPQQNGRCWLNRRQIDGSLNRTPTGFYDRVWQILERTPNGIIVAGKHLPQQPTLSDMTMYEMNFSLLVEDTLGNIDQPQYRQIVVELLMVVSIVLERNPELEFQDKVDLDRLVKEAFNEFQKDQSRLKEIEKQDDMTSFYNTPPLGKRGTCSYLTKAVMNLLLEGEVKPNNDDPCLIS
UniProt O60568: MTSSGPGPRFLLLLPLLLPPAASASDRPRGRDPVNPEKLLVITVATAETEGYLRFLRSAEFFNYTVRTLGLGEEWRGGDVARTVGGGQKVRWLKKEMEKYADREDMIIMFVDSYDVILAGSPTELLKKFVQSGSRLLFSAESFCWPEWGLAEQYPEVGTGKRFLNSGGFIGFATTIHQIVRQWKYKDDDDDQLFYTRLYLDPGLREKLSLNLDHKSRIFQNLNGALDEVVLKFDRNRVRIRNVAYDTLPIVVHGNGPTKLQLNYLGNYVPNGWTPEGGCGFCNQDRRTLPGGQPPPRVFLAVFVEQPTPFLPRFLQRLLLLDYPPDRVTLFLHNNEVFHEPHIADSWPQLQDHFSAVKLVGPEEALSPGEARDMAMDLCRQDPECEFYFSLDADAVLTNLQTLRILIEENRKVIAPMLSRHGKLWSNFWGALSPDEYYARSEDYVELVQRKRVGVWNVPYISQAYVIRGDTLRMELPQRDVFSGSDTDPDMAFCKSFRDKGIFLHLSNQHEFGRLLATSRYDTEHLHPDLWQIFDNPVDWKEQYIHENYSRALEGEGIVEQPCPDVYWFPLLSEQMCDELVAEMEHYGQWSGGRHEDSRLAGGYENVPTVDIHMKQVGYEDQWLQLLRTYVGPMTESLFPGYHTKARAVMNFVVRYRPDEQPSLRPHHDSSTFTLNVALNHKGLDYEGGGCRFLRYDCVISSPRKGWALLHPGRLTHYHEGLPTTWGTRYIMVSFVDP
UniProt P37287, 333-353: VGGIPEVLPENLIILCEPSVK
UniProt P19174, 1106-1125: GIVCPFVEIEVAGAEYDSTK
UniProt P53350, 365-392: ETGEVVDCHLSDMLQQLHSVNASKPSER

How the values were obtained:
[1] = compound: ClCC(=O)N[C@@H]1CCCc2ccccc12; test: log2 mean competition ratio of IA-DTB cysteine labelling (DMSO/compound) (log2 ratio); higher = stronger cysteine engagement by compound; conditions: treatment time: 4 h, cell line lysate: HEK293T
Experimental: (§1)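 IA-DTB competitive cysteine chemoproteomics in HEK293T RIPA lysate. Lysates were treated with compound 29 or 30 at 50 or 200 µM for 4 h, then IA-DTB (500 µM, 1 h), trypsin-digested, NeutrAvidin-enriched and analysed by diaPASEF. Competition ratio = intensity DMSO / intensity compound (n=4 treated, n=64 DMSO); binding: mean log2 CR ≥ 1 and p ≤ 0.05 plus QC filters. Target is the cysteine site.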

[2] = compound: ClCC(=O)N[C@H]1CCCc2ccccc12; test: as above; conditions: treatment time: 4 h, cell line lysate: HEK293T
Experimental: as §1

Target | log2 mean competition ratio ([1]; 50 µM) | log2 mean competition ratio ([1]; 200 µM) | log2 mean competition ratio ([2]; 50 µM) | log2 mean competition ratio ([2]; 200 µM)
PITX1 C156 (UniProt P78337) | -0.11 | -0.0088 | 0.325 | 0.154
PI4KA C246 (UniProt P42356) | 0.0393 | 0.291 | -0.16 | 0.304
POLA1 C592 (UniProt P09884) | 0.326 | 0.351 | 0.224 | 0.56
PI4KA C95 (UniProt P42356) | 0.508 | 0.364 | 0.567 | 0.096
PLCH1 C1279 (UniProt Q4KWH8) | 0.0125 | -0.269 | 0.659 | 0.0848
PMS2 C653 (UniProt P54278) | -0.0157 | -0.198 | -0.543 | -0.165
PLS1 C166 (UniProt Q14651) | 0.174 | -0.16 | -0.0417 | 0.0223
PIGX C77 (UniProt Q8TBF5) | 0.19 | 0.335 | 0.019 | -0.0651
PIGH C174 (UniProt Q14442) | -0.0291 | 0.056 | -0.262 | -0.146
PHKA1 C551 (UniProt P46020) | 0.0304 | -0.221 | 0.0482 | -0.0933
PIEZO1 C95 (UniProt Q92508) | -0.151 | 0.155 | -0.0773 | 0.126
PLEKHG2 C648 (UniProt Q9H7P9) | -0.17 | -0.138 | -0.298 | -0.0792
PM20D2 C14 (UniProt Q8IYS1) | 0.429 | 0.543 | 0.54 | 0.0142
PLD6 C226 (UniProt Q8N2A8) | -0.304 | -0.233 | 0.588 | -0.013
PIK3R1 C498 (UniProt P27986) | 0.0401 | -0.262 | -0.238 | -0.292
PIK3CB C626 (UniProt P42338) | -0.0377 | 0.0757 | -0.25 | 0.0464
PNN C439 (UniProt Q9H307) | -0.281 | 0.392 | -0.299 | 0.301
PIGT C195 | 0.25 | -0.109 | -0.0323 | -0.149
POLR1A C613 (UniProt O95602) | 0.0367 | -0.0864 | 0.172 | -0.19
POLDIP2 C143 (UniProt Q9Y2S7) | 0.025 | -0.135 | -0.00642 | -0.081
PMS1 C457 (UniProt P54277) | 0.402 | 0.0108 | 0.684 | 0.205
POLQ C1237 (UniProt O75417) | -0.234 | -0.115 | -0.131 | -0.00524

Target | log2 mean competition ratio ([1]; 50 µM) | log2 mean competition ratio ([1]; 200 µM) | log2 mean competition ratio ([2]; 50 µM) | log2 mean competition ratio ([2]; 200 µM)
PHKB C348 (UniProt Q93100) | 0.299 | -0.138 | 0.0994 | -0.143
PLOD3 C691 (UniProt O60568) | -0.142 | 0.0136 | 0.368 | 1.24
PIGA C348 (UniProt P37287) | 0.739 | 0.358 | -0.0237 | 0.276
PNKP C516 (UniProt Q96T60) | -0.147 | -0.136 | -0.00298 | 0.0415
PLAT C492 | -0.0488 | 0.313 | 0.00105 | 0.368
PLCG1 C1109 (UniProt P19174) | -0.572 | -0.137 | -0.0247 | -0.205
PIK3C2A C669 (UniProt O00443) | -0.0375 | 0.131 | -0.13 | 0.11
PMS2 C216 (UniProt P54278) | 0.505 | -0.0757 | 0.475 | -0.021
PML C189 (UniProt P29590) | -0.156 | -0.0378 | -0.389 | -0.0687
POLG C1130 | -0.309 | 0.535 | -0.186 | 0.155
PHF3 C1709 (UniProt Q92576) | 0.465 | 0.433 | 0.369 | 0.359
POLR1A C1699 (UniProt O95602) | 0.0877 | -0.147 | 0.139 | -0.00748
POLD2 C83 (UniProt P49005) | 0.245 | 0.0677 | -0.0735 | 0.0876
POLR1C C256 (UniProt O15160) | -0.123 | -0.0536 | 0.155 | 0.0114
PLEKHG4 C26 (UniProt Q58EX7) | 0.453 | 0.468 | 0.19 | 0.154
PML C389 (UniProt P29590) | -0.143 | 0.0529 | -0.321 | 0.0483
PLEKHA5 C249 (UniProt Q9HAU0) | 0.431 | -0.178 | 0.242 | -0.25
POGLUT1 C102 (UniProt Q8NBL1) | -0.188 | -0.123 | -0.142 | 0.133
PIK3C2A C541 (UniProt O00443) | 0.0426 | -0.0711 | -0.156 | -0.152
PM20D2 C293 (UniProt Q8IYS1) | -0.00783 | 0.0144 | -0.107 | 0.0159
PLK1 C372 (UniProt P53350) | 0.147 | 0.37 | 0.0523 | 0.0573
POLA1 C1085 (UniProt P09884) | 0.0381 | 0.0919 | -0.194 | 0.228

Full records from above. Values in the order: log2 mean competition ratio ([1]; 50 µM)	log2 mean competition ratio ([1]; 200 µM)	log2 mean competition ratio ([2]; 50 µM)	log2 mean competition ratio ([2]; 200 µM)
PM20D2 C14 (UniProt Q8IYS1) in the list: 0.429	0.543	0.54	0.0142
POLR1A C1699 (UniProt O95602) in the list: 0.0877	-0.147	0.139	-0.00748
